In the assay the target is [125I]-IGF-I/IGFBP-3 complex (UniProt P17936). Nature of the assay: solid plate binding assay, VN coated on wells, [125I]-IGF-I/IGFBP-3 added, gamma counter.

Chains of the proteins cited; added tags and fusions are not shown. Lines headed by an entry give the natural chain unless they say otherwise; changes in a name come on top.
UniProt P17936: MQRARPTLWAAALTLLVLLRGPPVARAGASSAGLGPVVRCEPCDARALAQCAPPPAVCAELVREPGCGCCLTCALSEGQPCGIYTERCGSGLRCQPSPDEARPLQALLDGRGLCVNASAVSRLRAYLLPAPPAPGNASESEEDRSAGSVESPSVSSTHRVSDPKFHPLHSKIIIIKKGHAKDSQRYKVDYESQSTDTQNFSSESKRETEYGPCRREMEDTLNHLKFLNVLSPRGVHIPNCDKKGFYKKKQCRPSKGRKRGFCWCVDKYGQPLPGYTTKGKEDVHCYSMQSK
UniProt P04004: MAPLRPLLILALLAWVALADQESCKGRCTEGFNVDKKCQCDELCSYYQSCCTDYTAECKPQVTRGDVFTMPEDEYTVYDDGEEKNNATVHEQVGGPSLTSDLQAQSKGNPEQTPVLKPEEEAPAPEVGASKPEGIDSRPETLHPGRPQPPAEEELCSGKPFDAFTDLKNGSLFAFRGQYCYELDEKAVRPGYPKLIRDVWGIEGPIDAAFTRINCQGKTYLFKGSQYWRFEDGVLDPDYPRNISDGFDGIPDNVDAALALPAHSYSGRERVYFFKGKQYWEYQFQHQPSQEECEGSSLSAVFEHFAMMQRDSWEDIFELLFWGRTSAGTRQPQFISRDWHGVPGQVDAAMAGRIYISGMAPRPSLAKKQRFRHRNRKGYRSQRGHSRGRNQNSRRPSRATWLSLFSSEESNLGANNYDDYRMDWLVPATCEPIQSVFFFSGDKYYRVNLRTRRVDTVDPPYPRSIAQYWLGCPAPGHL

For 1 substance, binding results are on record in US20100303884A1.

These are yes or no findings as the source states them, for the method shown. Some binding calls cover weakened binding; strength is not graded here.

For “Human VN: VN purified from human serum (from UniProt P04004 20-478)”, the binding entry was “binds”.
